Source: the supplement of paper PMC12067093, “Discovery and optimisation of a covalent ligand for TRIM25 and its application to targeted protein ubiquitination” (Chemical Science, 2025)
The list shows a part of the results.

Protein sequences, listed by entry. Tags and fused reporters are not part of them. Lines headed by an entry give the natural chain unless they say otherwise; changes in a name come on top.
UniProt Q96N66: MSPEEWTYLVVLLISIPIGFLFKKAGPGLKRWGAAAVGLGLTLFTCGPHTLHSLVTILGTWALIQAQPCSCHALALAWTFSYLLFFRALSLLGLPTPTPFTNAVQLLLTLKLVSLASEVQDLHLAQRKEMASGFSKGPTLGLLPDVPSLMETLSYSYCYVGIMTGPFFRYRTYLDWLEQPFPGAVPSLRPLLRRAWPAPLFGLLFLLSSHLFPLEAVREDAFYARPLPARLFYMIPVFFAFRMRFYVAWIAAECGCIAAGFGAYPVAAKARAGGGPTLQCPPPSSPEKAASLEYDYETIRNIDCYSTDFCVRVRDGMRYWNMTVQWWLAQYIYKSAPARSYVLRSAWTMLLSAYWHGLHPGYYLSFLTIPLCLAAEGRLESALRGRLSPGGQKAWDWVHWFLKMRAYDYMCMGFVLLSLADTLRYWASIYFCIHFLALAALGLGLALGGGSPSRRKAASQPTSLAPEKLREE
UniProt O95819: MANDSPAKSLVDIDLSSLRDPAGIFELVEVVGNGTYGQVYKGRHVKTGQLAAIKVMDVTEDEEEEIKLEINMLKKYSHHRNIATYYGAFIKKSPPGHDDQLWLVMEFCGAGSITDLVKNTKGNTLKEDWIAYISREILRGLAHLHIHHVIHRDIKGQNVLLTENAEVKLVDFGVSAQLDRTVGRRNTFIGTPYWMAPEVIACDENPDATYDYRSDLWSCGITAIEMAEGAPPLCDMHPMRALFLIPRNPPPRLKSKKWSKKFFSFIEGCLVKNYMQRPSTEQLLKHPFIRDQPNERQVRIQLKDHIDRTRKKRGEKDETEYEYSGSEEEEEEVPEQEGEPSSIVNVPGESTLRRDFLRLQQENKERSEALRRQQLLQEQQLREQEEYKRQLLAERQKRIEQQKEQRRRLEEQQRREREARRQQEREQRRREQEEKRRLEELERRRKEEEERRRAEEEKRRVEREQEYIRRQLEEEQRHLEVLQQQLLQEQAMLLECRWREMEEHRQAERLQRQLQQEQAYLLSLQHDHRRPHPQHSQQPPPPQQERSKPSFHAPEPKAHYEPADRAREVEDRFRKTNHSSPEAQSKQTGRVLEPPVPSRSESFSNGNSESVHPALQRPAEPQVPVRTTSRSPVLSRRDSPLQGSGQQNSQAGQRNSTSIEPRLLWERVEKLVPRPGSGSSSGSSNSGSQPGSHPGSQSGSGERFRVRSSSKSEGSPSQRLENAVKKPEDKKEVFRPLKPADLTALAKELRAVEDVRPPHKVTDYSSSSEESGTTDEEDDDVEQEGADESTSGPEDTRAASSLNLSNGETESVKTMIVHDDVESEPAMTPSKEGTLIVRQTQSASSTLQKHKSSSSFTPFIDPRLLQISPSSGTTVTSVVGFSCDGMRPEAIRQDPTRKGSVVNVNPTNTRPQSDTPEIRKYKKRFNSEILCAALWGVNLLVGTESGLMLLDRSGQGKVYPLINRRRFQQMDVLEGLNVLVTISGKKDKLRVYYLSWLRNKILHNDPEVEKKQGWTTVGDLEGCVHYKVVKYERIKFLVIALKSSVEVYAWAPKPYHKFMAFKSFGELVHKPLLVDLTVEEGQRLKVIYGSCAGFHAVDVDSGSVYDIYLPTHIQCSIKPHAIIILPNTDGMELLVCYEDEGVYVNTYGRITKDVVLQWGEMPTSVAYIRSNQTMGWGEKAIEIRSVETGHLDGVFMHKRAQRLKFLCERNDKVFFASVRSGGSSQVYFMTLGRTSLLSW
UniProt Q7L5Y9: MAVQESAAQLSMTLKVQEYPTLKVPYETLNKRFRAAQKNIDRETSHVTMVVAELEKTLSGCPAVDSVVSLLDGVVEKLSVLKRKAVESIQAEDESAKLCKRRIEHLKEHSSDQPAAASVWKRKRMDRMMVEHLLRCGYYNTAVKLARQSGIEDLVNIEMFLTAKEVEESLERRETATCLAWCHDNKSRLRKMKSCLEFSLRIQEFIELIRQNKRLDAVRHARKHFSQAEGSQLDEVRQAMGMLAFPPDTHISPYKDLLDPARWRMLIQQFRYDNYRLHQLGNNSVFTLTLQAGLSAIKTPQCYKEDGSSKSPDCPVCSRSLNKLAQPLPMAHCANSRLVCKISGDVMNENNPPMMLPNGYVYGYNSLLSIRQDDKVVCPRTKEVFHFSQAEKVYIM
UniProt P07948: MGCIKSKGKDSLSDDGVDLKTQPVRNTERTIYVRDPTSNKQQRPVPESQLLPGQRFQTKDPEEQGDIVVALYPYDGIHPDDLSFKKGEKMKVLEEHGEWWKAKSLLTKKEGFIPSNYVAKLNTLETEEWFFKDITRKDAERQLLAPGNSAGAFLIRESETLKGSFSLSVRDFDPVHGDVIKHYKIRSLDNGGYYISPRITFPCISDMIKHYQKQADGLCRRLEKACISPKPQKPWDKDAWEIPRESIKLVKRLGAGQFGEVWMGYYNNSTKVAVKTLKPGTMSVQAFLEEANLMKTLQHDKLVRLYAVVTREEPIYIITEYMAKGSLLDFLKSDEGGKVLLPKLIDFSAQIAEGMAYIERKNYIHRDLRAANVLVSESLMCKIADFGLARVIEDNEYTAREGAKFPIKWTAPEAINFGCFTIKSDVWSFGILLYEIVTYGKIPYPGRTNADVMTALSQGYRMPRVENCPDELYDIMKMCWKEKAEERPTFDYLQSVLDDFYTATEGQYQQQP
UniProt Q16539, whole entry, looked up: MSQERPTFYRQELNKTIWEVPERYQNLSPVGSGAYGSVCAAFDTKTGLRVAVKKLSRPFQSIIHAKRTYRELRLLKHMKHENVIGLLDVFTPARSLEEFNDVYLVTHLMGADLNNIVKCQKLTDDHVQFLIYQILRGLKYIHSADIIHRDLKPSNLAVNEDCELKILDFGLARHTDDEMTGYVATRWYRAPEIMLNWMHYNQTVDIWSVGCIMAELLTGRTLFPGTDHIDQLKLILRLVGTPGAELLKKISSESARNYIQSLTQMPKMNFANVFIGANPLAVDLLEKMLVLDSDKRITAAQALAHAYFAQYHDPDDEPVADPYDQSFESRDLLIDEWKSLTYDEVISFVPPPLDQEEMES
UniProt P56192: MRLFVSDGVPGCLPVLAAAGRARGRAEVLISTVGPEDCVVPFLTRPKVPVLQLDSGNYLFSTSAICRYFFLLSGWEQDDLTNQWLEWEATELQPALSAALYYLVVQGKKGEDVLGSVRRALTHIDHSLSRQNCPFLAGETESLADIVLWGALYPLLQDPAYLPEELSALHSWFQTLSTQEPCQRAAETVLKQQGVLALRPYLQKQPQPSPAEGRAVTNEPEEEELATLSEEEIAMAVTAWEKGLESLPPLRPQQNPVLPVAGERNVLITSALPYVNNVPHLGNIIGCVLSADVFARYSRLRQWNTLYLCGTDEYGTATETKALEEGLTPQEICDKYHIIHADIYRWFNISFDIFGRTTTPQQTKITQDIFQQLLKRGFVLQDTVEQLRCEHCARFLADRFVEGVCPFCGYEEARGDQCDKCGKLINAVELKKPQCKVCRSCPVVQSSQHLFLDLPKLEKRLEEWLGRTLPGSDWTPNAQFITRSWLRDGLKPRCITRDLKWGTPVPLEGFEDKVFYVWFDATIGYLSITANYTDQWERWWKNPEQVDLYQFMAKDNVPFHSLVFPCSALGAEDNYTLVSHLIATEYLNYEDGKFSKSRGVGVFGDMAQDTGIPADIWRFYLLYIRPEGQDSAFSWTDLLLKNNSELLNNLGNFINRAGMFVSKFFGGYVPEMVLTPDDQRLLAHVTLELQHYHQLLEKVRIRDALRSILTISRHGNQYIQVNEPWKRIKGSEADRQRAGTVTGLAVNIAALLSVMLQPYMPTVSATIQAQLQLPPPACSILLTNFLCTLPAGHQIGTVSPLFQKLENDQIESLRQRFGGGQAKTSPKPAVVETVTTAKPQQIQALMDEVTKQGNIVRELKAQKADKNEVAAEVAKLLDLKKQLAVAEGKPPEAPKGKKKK
UniProt P49641: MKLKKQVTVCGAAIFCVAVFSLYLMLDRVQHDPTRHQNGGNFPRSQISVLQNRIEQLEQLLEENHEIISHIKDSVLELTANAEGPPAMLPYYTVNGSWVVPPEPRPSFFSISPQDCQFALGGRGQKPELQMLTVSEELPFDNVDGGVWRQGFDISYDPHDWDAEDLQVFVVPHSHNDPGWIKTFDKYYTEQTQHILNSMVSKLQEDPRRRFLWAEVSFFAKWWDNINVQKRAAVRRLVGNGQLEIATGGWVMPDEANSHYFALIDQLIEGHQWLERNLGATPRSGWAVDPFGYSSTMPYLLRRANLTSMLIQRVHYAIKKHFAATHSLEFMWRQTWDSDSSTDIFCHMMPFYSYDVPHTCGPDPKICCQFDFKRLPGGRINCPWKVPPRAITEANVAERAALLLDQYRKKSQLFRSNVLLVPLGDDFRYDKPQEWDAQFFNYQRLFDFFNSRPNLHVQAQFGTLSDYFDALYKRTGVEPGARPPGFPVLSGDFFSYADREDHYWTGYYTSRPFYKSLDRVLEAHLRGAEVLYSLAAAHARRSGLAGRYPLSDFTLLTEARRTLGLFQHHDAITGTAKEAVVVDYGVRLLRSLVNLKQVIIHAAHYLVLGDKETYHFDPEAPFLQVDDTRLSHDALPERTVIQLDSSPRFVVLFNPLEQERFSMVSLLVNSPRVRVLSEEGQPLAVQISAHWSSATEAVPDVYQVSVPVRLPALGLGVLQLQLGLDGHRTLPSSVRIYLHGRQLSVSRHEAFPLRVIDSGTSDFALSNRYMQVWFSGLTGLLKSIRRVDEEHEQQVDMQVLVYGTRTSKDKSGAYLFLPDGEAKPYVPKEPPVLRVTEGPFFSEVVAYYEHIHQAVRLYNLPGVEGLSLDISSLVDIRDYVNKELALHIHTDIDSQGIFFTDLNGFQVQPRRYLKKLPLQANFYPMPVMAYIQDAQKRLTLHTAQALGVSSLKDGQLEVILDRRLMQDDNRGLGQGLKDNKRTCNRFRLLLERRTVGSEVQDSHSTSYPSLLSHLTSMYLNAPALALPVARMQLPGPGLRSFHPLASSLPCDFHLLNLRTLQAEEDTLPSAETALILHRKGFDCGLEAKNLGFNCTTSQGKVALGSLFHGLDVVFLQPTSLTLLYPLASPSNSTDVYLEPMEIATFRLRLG
UniProt Q13164: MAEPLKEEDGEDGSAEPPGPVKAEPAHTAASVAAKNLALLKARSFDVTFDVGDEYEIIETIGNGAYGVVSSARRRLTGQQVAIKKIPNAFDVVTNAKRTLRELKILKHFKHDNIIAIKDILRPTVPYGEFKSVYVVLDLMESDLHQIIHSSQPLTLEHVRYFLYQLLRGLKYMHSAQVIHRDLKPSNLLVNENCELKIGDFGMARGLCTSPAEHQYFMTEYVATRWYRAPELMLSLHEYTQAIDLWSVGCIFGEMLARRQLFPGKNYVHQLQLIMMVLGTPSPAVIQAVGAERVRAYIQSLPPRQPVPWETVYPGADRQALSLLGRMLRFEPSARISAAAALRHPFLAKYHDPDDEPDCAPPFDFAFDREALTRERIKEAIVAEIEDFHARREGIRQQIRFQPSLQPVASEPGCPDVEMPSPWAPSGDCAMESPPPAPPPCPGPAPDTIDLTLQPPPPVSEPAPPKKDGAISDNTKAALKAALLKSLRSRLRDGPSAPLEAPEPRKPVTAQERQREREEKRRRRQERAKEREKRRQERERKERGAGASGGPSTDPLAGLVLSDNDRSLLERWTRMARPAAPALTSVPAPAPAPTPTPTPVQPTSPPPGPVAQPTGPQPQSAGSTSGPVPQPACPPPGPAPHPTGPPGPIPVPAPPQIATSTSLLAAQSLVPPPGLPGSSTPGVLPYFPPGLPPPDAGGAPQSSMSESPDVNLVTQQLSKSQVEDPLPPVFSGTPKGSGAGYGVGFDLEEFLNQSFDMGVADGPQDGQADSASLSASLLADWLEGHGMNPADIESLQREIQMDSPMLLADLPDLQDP

Compound: Cc1cc(ccc1-c1ccccc1)C(=O)N1CCCN(CC1)C(=O)CCl [compound 10]
Assay: probe-labelled cysteine peptide fold change vs DMSO (competition) (log2 fold change); higher = less target engagement (more negative = stronger competition)
Conditions: 10 µM; THP-1; incubation time: 4 h
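Further: competitive profiling in live THP-1 cells: cysteine peptides tagged with an iodoacetamide desthiobiotin (IA-DTB) probe, intensity after compound treatment relative to DMSO-treated cells.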

Going from “MAP3K20_Q9NYL2_231_LTIPSSCPR (UniProt Q9NYL2)” to “MAP10_Q9P2G4_256_AECDNVGSVENGK (UniProt Q9P2G4)”, the “probe-labelled cysteine peptide fold change” value falls from -0.136 to -0.268.

Compared with “MBOAT7_Q96N66_310_NIDCYSTDFCVR (UniProt Q96N66)”, “LUC7L3_O95232_40_YYLCGFCPAELFTNTR (UniProt O95232)” is higher in “probe-labelled cysteine peptide fold change” value: 0.0364 for the first, 0.055 for the second.

Going from “MAPK1_P28482_40_YTNLSYIGEGAYGMVCSAYDNVNK (UniProt P28482)” to “MAP3K4_Q9Y6R4_752_LFCDIAGMLLK (UniProt Q9Y6R4)”, the “probe-labelled cysteine peptide fold change” value rises from 0.0939 to 0.245.

First: MAPRE2_Q15555_279_LREIELLCQEHGQENDDLVQR (UniProt Q15555)
Second: MAP4K4_O95819_269_FFSFIEGCLVK (UniProt O95819)
The “probe-labelled cysteine peptide fold change” value of the first is higher: 0.0318 for the first, -0.0412 for the second.

Compared with “MAP4K1_Q92918_494_LFNGCPLR (UniProt Q92918)”, “LYPLAL1_Q5VWZ2_174_SNGVLPELFQCHGTADELVLHSWAEETNSMLK (UniProt Q5VWZ2)” is higher in “probe-labelled cysteine peptide fold change” value: -0.323 for the first, 0.165 for the second.

Going from “MACF1_Q9UPN3_666_LETQYCK (UniProt Q9UPN3)” to “M6PR_P20645_32_TCDLVGEK (UniProt P20645)”, the “probe-labelled cysteine peptide fold change” value falls from -0.142 to -0.289.

First: MAEA_Q7L5Y9_333_LAQPLPMAHCANSR (UniProt Q7L5Y9)
Second: LY75_O60449_477_VQSCEEK (UniProt O60449)
The “probe-labelled cysteine peptide fold change” value of the first is higher: -0.0143 for the first, -0.205 for the second.

First: LYST_Q99698_3649_LCYVQSLAGHK (UniProt Q99698)
Second: LYN_P07948_219_QADGLCR (UniProt P07948)
The “probe-labelled cysteine peptide fold change” value of the first is lower: -0.0877 for the first, -0.0469 for the second.

Going from “LYPLA1_O75608_211_TYEGMMHSSCQQEMMDVK (UniProt O75608)” to “MACF1_Q9UPN3_3368_QLCLEHDEK (UniProt Q9UPN3)”, the “probe-labelled cysteine peptide fold change” value rises from 0.203 to 0.282.

First: MACO1_Q8N5G2_315_EDSCTASSK (UniProt Q8N5G2)
Second: MACF1_Q9UPN3_877_AVCDYR (UniProt Q9UPN3)
The “probe-labelled cysteine peptide fold change” value of the first is lower: -0.144 for the first, 0.102 for the second.

Going from “MAP3K4_Q9Y6R4_596_CSAVSWEELK (UniProt Q9Y6R4)” to “MACF1_Q9UPN3_5116_VNSGCVMMENK (UniProt Q9UPN3)”, the “probe-labelled cysteine peptide fold change” value rises from 0.229 to 0.527.

Compared with “MAPK14_Q16539_39_YQNLSPVGSGAYGSVCAAFDTK (UniProt Q16539)”, “MARS_P56192_38_AEVLISTVGPEDCVVPFLTRPK (UniProt P56192)” is lower in “probe-labelled cysteine peptide fold change” value: 0.03 for the first, -0.0722 for the second.

Compared with “MAP3K1_Q13233_488_NREPLICPLCR (UniProt Q13233)”, “LYAR_Q9NX58_30_NCECLSCIDCGK (UniProt Q9NX58)” is lower in “probe-labelled cysteine peptide fold change” value: 0.0962 for the first, 0.0738 for the second.

Compared with LYN_P07948_226_ACISPK (UniProt P07948), “MAN2A2_P49641_382_INCPWK (UniProt P49641)” is lower in “probe-labelled cysteine peptide fold change” value: 0.00857 for the first, -0.0275 for the second.

Compared with “MAN2C1_Q9NTJ4_29_FVSPLYFTDCNLR (UniProt Q9NTJ4)”, “MACF1_Q9UPN3_2629_KEGLLTNEAVLSPGMMHGIVDPENCR (UniProt Q9UPN3)” is lower in “probe-labelled cysteine peptide fold change” value: 0.0757 for the first, -0.17 for the second.

Going from “MACF1_Q9UPN3_2895_SLGQVSLTHPYSECDFK (UniProt Q9UPN3)” to “MAPK7_Q13164_194_DLKPSNLLVNENCELK (UniProt Q13164)”, the “probe-labelled cysteine peptide fold change” value falls from -0.168 to -0.251.

Compared with “MARF1_Q9Y4F3_590_ELCETK (UniProt Q9Y4F3)”, “MARK3_P27448_213_LDTFCGSPPYAAPELFQGK (UniProt P27448)” is higher in “probe-labelled cysteine peptide fold change” value: -0.156 for the first, -0.0946 for the second.

With MAGT1_Q9H0U3_87_QCVVCK (UniProt Q9H0U3) the “probe-labelled cysteine peptide fold change” value was -0.137.

Same assay, conditions: 50 µM; THP-1; incubation time: 4 h

First: MAP3K20_Q9NYL2_231_LTIPSSCPR (UniProt Q9NYL2)
Second: MAP10_Q9P2G4_256_AECDNVGSVENGK (UniProt Q9P2G4)
The “probe-labelled cysteine peptide fold change” value of the first is lower: -0.0263 for the first, 0.325 for the second.

First: MBOAT7_Q96N66_310_NIDCYSTDFCVR (UniProt Q96N66)
Second: LUC7L3_O95232_40_YYLCGFCPAELFTNTR (UniProt O95232)
The “probe-labelled cysteine peptide fold change” value of the first is higher: 0.0912 for the first, 0.000444 for the second.

First: MAPK1_P28482_40_YTNLSYIGEGAYGMVCSAYDNVNK (UniProt P28482)
Second: MAP3K4_Q9Y6R4_752_LFCDIAGMLLK (UniProt Q9Y6R4)
The “probe-labelled cysteine peptide fold change” value of the first is lower: 0.0342 for the first, 0.479 for the second.

Going from “MAPRE2_Q15555_279_LREIELLCQEHGQENDDLVQR (UniProt Q15555)” to “MAP4K4_O95819_269_FFSFIEGCLVK (UniProt O95819)”, the “probe-labelled cysteine peptide fold change” value rises from -0.133 to 0.582.

First: MAP4K1_Q92918_494_LFNGCPLR (UniProt Q92918)
Second: LYPLAL1_Q5VWZ2_174_SNGVLPELFQCHGTADELVLHSWAEETNSMLK (UniProt Q5VWZ2)
The “probe-labelled cysteine peptide fold change” value of the first is lower: -0.17 for the first, -0.0729 for the second.

Compared with “MACF1_Q9UPN3_666_LETQYCK (UniProt Q9UPN3)”, “M6PR_P20645_32_TCDLVGEK (UniProt P20645)” is lower in “probe-labelled cysteine peptide fold change” value: 0.0191 for the first, -0.165 for the second.

Going from “MAEA_Q7L5Y9_333_LAQPLPMAHCANSR (UniProt Q7L5Y9)” to “LY75_O60449_477_VQSCEEK (UniProt O60449)”, the “probe-labelled cysteine peptide fold change” value rises from -0.466 to -0.0554.

First: LYST_Q99698_3649_LCYVQSLAGHK (UniProt Q99698)
Second: LYN_P07948_219_QADGLCR (UniProt P07948)
The “probe-labelled cysteine peptide fold change” value of the first is lower: -0.182 for the first, -0.0264 for the second.

Going from “LYPLA1_O75608_211_TYEGMMHSSCQQEMMDVK (UniProt O75608)” to “MACF1_Q9UPN3_3368_QLCLEHDEK (UniProt Q9UPN3)”, the “probe-labelled cysteine peptide fold change” value rises from -0.237 to -0.104.

Compared with “MACO1_Q8N5G2_315_EDSCTASSK (UniProt Q8N5G2)”, “MACF1_Q9UPN3_877_AVCDYR (UniProt Q9UPN3)” is higher in “probe-labelled cysteine peptide fold change” value: -0.0445 for the first, 0.114 for the second.

Going from “MAP3K4_Q9Y6R4_596_CSAVSWEELK (UniProt Q9Y6R4)” to “MACF1_Q9UPN3_5116_VNSGCVMMENK (UniProt Q9UPN3)”, the “probe-labelled cysteine peptide fold change” value falls from 0.498 to 0.0552.

Compared with “MAPK14_Q16539_39_YQNLSPVGSGAYGSVCAAFDTK (UniProt Q16539)”, “MARS_P56192_38_AEVLISTVGPEDCVVPFLTRPK (UniProt P56192)” is lower in “probe-labelled cysteine peptide fold change” value: 0.234 for the first, 0.0548 for the second.

Going from “MAP3K1_Q13233_488_NREPLICPLCR (UniProt Q13233)” to “LYAR_Q9NX58_30_NCECLSCIDCGK (UniProt Q9NX58)”, the “probe-labelled cysteine peptide fold change” value falls from 0.286 to 0.144.

First: LYN_P07948_226_ACISPK (UniProt P07948)
Second: MAN2A2_P49641_382_INCPWK (UniProt P49641)
The “probe-labelled cysteine peptide fold change” value of the first is higher: 0.101 for the first, -0.051 for the second.

Compared with “MAN2C1_Q9NTJ4_29_FVSPLYFTDCNLR (UniProt Q9NTJ4)”, “MACF1_Q9UPN3_2629_KEGLLTNEAVLSPGMMHGIVDPENCR (UniProt Q9UPN3)” is lower in “probe-labelled cysteine peptide fold change” value: 0.133 for the first, -0.249 for the second.

First: MACF1_Q9UPN3_2895_SLGQVSLTHPYSECDFK (UniProt Q9UPN3)
Second: MAPK7_Q13164_194_DLKPSNLLVNENCELK (UniProt Q13164)
The “probe-labelled cysteine peptide fold change” value of the first is higher: -0.157 for the first, -0.627 for the second.

First: MARF1_Q9Y4F3_590_ELCETK (UniProt Q9Y4F3)
Second: MARK3_P27448_213_LDTFCGSPPYAAPELFQGK (UniProt P27448)
The “probe-labelled cysteine peptide fold change” value of the first is lower: -0.403 for the first, 0.0843 for the second.

In the case of MAGT1_Q9H0U3_87_QCVVCK (UniProt Q9H0U3), the “probe-labelled cysteine peptide fold change” value is reported as 0.464.
